Results on 42 sequences are retold here after article PMC7819943, “Rice protein-binding microarrays: a tool to detect cis-acting elements near promoter regions in rice”.

This is one part of the list.

This assay has as its target T1, OsSMF1 (Oryza sativa, UniProt Q6ZLB0 1-436).
T1 sequence: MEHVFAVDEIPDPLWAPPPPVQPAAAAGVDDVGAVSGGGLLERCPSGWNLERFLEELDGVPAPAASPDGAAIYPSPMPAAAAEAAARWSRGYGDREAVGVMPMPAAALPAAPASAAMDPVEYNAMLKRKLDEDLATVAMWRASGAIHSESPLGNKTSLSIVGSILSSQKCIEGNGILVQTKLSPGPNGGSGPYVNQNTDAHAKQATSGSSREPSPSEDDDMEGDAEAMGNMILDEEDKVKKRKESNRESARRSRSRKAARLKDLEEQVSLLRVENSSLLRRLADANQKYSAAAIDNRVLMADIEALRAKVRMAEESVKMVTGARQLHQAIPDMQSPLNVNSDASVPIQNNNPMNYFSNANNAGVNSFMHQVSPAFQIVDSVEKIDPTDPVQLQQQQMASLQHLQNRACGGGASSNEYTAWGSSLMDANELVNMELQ
Kind of assay: protein-binding microarray (RPBM); PBS, 2% BSA, 51.3 ng/ul salmon testes DNA, 50 uM zinc acetate, 200 nM TF, 25 C, 1 h; high values mean tight binding. The note with it: protein: recombinant; tags: N-terminal polyhistidine and DsRed monomer fusion (pET32a); chain copies: 2; label: CyDye5-dUTP incorporated in the synthesized complementary strand; 3' TTTTT single-stranded linker to array surface; dsDNA, one strand shown. An outline of the steps: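 The binding signal is fluorescence intensity per feature, in arbitrary units, read on an Axon 4000B scanner. Polyhistidine- and DsRed-tagged transcription factors (N-terminal fusions) from E. coli BL21-CodonPlus were purified on Ni–NTA and applied at 200 nM for 1 h at 25 °C to a double-stranded, BSA-blocked custom Agilent array in buffer with 50 µM zinc acetate.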
For the sequence “ATACATATAGCCACATCATATTTATGCTTATGTGGAGGAGCGGAGTCACCTAGTGCAG”, the binding signal was 8400 fluorescence intensity (a.u.).
For the sequence “CTTTGGTCGTATACGTAATACGAACGTGGATACGCCTCCACGGAGTCACCTAGTGCAG”, the binding signal is 6020 fluorescence intensity (a.u.).
Regarding “TACCGATCCCGCCGGCTGCACGACGCCGACCCGACACACCCGGAGTCACCTAGTGCAG”, the binding signal is 18500 fluorescence intensity (a.u.).
As for “GTAGGTGGATGGTGTGGCCTGCACTCGTTCGGCTTCTACTCGGAGTCACCTAGTGCAG”, the binding signal is 3870 fluorescence intensity (a.u.).
Turning to “AAGAAGCTGTGCCACGTGTTTCCTCCTTCCCCTCCTCGATCGGAGTCACCTAGTGCAG”, the binding signal is 18900 fluorescence intensity (a.u.).
On to “CAGTGTACGAGCTGGTGTGTGTTTCTCTCCGTTTCGTTTCCGGAGTCACCTAGTGCAG”, for which the binding signal was 4080 fluorescence intensity (a.u.).
As for “GCGAGCAAATTATTCGCCACGCTTGCGGCACGACTGTTGCCGGAGTCACCTAGTGCAG”, the figure is 3640 fluorescence intensity (a.u.); as for “TTGGTGTTGTTACATCAGCATCCATCAGTTTTGTTACCCCCGGAGTCACCTAGTGCAG”, 6030 fluorescence intensity (a.u.); as for “ACAGCCAACGTGTATCATCAGTAGATTCCACCCCAAGATCCGGAGTCACCTAGTGCAG”, 4540 fluorescence intensity (a.u.).
As for “TCATGATGCCACGGCACAATATTTTGGTGTGATCCTACACCGGAGTCACCTAGTGCAG”, the figure is 3260 fluorescence intensity (a.u.); as for “GATATCACACTATCTATGACAACGAATTTGGACAGTGGGTCGGAGTCACCTAGTGCAG”, 3500 fluorescence intensity (a.u.).
As for “ATTTTGGCTGACTAGACTGCCACGTATGCGTCCACGTAGGCGGAGTCACCTAGTGCAG”, the figure is 29500 fluorescence intensity (a.u.); as for “ATGGGCAATACCAATAGCTAAGCCAAGCCAAATTTCTTCTCGGAGTCACCTAGTGCAG”, 26200 fluorescence intensity (a.u.); as for “GCGTTTAAGGATTAGGAATTATAAGCTGATGCGTACACAGCGGAGTCACCTAGTGCAG”, 3650 fluorescence intensity (a.u.).
On to “GCTACTATCTATACTATTATCAGCGTCACGTGAGCTCGCTCGGAGTCACCTAGTGCAG”, for which the binding signal was 4040 fluorescence intensity (a.u.).
On to “AGATGGATCAAACGGGTTGGTTGTCGTGTCACCTCCATTCCGGAGTCACCTAGTGCAG”, for which the binding signal was 7340 fluorescence intensity (a.u.).
Take “TCCGTATTTTAATGTATGACGCTGTTGACTTTCGACCTACCGGAGTCACCTAGTGCAG”: the binding signal is 7860 fluorescence intensity (a.u.).
With “GTCAGTGGGTCCCATAATATATTTTGTGTGTGAATGACAGCGGAGTCACCTAGTGCAG” the figure was 3400 fluorescence intensity (a.u.); with “ACTAGGATGTGTCACGTTTAGTTTTAGTTTGTATTTTATGCGGAGTCACCTAGTGCAG”, 5970 fluorescence intensity (a.u.); with “TGACCGGCGCAGCTCGCGCCACGTCACCCGCACGCGCCGCCGGAGTCACCTAGTGCAG”, 8600 fluorescence intensity (a.u.).
For “TAAAACTAGTCAACACTGTCGTGTAAACGTCACGTAAGCGCGGAGTCACCTAGTGCAG”, the binding signal was 6840 fluorescence intensity (a.u.).
Turning to “TTTATATACGTATTCTTAACGTTATAAACGTACTGACTGACGGAGTCACCTAGTGCAG”, the binding signal was 3410 fluorescence intensity (a.u.).
With “CACCTGCAGCTGCCACGTCAGAGCCACGTCGGATTCCAACCGGAGTCACCTAGTGCAG” the figure was 40800 fluorescence intensity (a.u.); with “TCTCTTGCTAACTGTGCTTAGTCAATATTGGGTGCTGAGTCGGAGTCACCTAGTGCAG”, 3650 fluorescence intensity (a.u.).
“ACATATATGCTATTATATGAGAGAGAATATAATGATGCTACGGAGTCACCTAGTGCAG”: the binding signal was 34700 fluorescence intensity (a.u.).
In the case of “TGAAGCAGGCAAAGCAGGCAGGAAGGGATAAGAACACAATCGGAGTCACCTAGTGCAG”, the binding signal is 24400 fluorescence intensity (a.u.).
For the sequence “CCTTCATCCCATAATATAAAAGATTTTAGAGGGATATGACCGGAGTCACCTAGTGCAG”, the binding signal was 33000 fluorescence intensity (a.u.).
As for “CCTTAGGCGTTCTTGCCGGTGCCGTTCGTTCCTGGGGCCGCGGAGTCACCTAGTGCAG”, the binding signal was 23500 fluorescence intensity (a.u.).
With “ACCAGCAGCCAGTCAGCCTCCTTGACCCACACACACTCTCCGGAGTCACCTAGTGCAG” the figure was 5530 fluorescence intensity (a.u.); with “AGAGTAGATTGTACATTGTTTTGCTCACCTTAGTTTAGTACGGAGTCACCTAGTGCAG”, 3860 fluorescence intensity (a.u.).
In the case of “GTGTCTGACAAGGCCGGGCCCACTGTCATTCACTCAGTCCCGGAGTCACCTAGTGCAG”, the binding signal is 3880 fluorescence intensity (a.u.).
As for “ATGCGTACTCATGCCGTTGTCTTCTCGCAGTTGCGCTGGTCGGAGTCACCTAGTGCAG”, the figure is 3860 fluorescence intensity (a.u.); as for “TCTCTTCGGTGGTGGAATTGGTTTCATCTGAGCTGCTGCTCGGAGTCACCTAGTGCAG”, 3470 fluorescence intensity (a.u.).
Regarding “GTATTTATTATCTTCTCTAATGAGGTGTATTGCTGTGGACCGGAGTCACCTAGTGCAG”, the binding signal was 3250 fluorescence intensity (a.u.).
With “ATAACTAAGATGTGCCACATCTCCTTCTAAGTTAAGTTTTCGGAGTCACCTAGTGCAG” the figure was 3300 fluorescence intensity (a.u.); with “GACAGTAGTGTCCCTGGTTTTGGCTGACGTGGCTCCTACACGGAGTCACCTAGTGCAG”, 33200 fluorescence intensity (a.u.); with “GCGCTTCCGGCCCAGGAGCCTCAAATCACACCTCAGACTCCGGAGTCACCTAGTGCAG”, 36900 fluorescence intensity (a.u.).
In the case of “GTTTCATCCGATGAGTTGTCTGGACGTTGCATCGGCTTACCGGAGTCACCTAGTGCAG”, the binding signal was 3290 fluorescence intensity (a.u.).
On to “CAGGTTCGCCTCGAACGTGCTGTTGCCCACGTACGTGTTGCGGAGTCACCTAGTGCAG”, for which the binding signal was 4400 fluorescence intensity (a.u.).
With “CGCGTGCACACGCACACGTTGGCCGGTTGATCTCACCAAGCGGAGTCACCTAGTGCAG” the figure was 4080 fluorescence intensity (a.u.); with “CGCCACCAGGCTCCTCAGGCTCAACCTCGCCTACAACAACCGGAGTCACCTAGTGCAG”, 30900 fluorescence intensity (a.u.).
With “GTCTGGTCTGCGAATCGCCGGTCACCAGTGAATGGGCATGCGGAGTCACCTAGTGCAG” the figure was 3160 fluorescence intensity (a.u.).
